Assay [1] has as its target GFP-p65 (UniProt Q04206). Put plainly: co-IP; HEK 293T cells transfected with tagged proteins; RIPA lysate, antibody (anti-GFP, anti-Myc or anti-Flag) 6 h at 4 °C, Protein A/G agarose 4 h at 4 °C, Western blot; for p65 and HDAC1 also with or without co-expressed Flag-DACH1. (In general: A western blot detects proteins with antibodies after separation by electrophoresis.)

Sequences of proteins named here, by UniProt entry; tags and fusion partners are left off.
UniProt Q04206: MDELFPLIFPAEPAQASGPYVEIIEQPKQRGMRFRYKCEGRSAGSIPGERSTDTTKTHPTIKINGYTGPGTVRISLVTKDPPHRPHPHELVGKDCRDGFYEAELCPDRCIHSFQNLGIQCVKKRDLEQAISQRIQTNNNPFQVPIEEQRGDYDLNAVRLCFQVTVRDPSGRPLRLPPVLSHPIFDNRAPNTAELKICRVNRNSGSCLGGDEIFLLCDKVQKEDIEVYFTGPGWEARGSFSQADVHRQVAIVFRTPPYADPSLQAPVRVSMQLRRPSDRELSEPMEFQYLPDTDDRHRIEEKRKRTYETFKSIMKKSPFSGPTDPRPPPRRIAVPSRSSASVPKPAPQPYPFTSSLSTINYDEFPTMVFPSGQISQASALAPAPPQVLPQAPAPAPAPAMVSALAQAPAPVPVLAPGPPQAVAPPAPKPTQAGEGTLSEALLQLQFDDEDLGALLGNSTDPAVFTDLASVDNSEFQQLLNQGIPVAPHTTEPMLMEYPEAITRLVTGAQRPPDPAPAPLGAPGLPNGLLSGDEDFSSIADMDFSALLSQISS
UniProt P05412: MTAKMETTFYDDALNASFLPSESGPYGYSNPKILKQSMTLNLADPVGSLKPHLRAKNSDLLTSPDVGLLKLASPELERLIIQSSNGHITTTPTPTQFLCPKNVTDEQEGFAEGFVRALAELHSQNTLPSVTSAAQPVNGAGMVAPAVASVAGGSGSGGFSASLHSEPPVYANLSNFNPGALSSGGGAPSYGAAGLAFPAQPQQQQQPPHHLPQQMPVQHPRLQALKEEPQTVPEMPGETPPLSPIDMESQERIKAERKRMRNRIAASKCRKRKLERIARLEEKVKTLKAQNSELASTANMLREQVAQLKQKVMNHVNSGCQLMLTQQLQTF
UniProt Q13547: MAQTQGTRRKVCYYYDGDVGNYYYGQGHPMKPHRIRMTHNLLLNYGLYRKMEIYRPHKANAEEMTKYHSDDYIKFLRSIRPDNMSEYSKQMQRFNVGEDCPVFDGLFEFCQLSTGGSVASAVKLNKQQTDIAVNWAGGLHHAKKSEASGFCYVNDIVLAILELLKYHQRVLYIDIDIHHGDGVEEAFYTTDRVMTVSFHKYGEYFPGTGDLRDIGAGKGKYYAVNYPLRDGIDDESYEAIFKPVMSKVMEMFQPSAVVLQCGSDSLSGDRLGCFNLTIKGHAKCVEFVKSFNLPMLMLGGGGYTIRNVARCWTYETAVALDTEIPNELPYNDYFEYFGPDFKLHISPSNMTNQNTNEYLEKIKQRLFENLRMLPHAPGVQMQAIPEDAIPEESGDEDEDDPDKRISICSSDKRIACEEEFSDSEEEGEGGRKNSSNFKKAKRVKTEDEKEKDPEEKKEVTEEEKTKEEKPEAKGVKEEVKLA

The target in assay [2] is GFP-p65 (UniProt Q04206). The description is as above. The source holds these as a separate data set.
In assay [3] the target is GFP-c-Jun (UniProt P05412). Described as above.
Assay [4] deals with Myc-HDAC1 (histone deacetylase 1) (UniProt Q13547). Described as above.
Assay [5] addresses GFP-p65 (UniProt Q04206). The experiment in a line: ChIP-reChIP; HEK 293T cells transfected with Flag-DACH1 and GFP-c-Jun or GFP-p65, cross-linked with 1% formaldehyde; DNA-protein complexes immunoprecipitated with anti-GFP or anti-IgG, re-immunoprecipitated with anti-Flag; region 3 (AP-1 site) or region 1 (NF-κB site) of the MMP9 promoter amplified by PCR.
Assay [6] concerns the target GFP-c-Jun (UniProt P05412). The assay is described as above.
Assay [7] deals with endogenous p65 (human (endogenous in ZR-75-30)) (UniProt Q04206). Put plainly: co-IP; endogenous proteins of ZR-75-30 cells; immunoprecipitation with anti-p65 or anti-IgG antibody, Western blot with anti-DACH1 antibody.

No constants are given. Whether binding was seen depends on the method and setting. For some of these results: In cells and extracts the contact can be indirect. Some entries that bind do so weakly or less than the wild type. For some of these results: Sequences can lack the tags named with a protein.

As to “Myc-HDAC1 (histone deacetylase 1) (from UniProt Q13547 1-482)”, in the assay with GFP-p65 [1], the binding result is listed as “binds”.

B1: Flag-DACH1 (human Dachshund homolog 1) (protein, UniProt Q9UI36-2 1-706)
chain: MAVPAALIPPTQLVPPQPPISTSASSSGTTTSTSSATSSPAPSIGPPASSGPTLFRPEPIASAAAAAATVTSTGGGGGGGGSGGGGGSSGNGGGGGGGGGGSNCNPNLAAASNGSGGGGGGISAGGGVASSTPINASTGSSSSSSSSSSSSSSSSSSSSSSSSCGPLPGKPVYSTPSPVENTPQNNECKMVDLRGAKVASFTVEGCELICLPQAFDLFLKHLVGGLHTVYTKLKRLEITPVVCNVEQVRILRGLGAIQPGVNRCKLISRKDFETLYNDCTNASSRPGRPPKRTQSVTSPENSHIMPHSVPGLMSPGIIPPTGLTAAAAAAAAATNAAIAEAMKVKKIKLEAMSNYHASNNQHGADSENGDMNSSVGLELPFMMMPHPLIPVSLPPASVTMAMSQMNHLSTIANMAAAAQVQSPPSRVETSVIKERVPDSPSPAPSLEEGRRPGSHPSSHRSSSVSSSPARTESSSDRIPVHQNGLSMNQMLMGLSPNVLPGPKEGDLAGHDMGHESKRMHIEKDETPLSTPTARDSLDKLSLTGHGQPLPPGFPSPFLFPDGLSSIETLLTNIQGLLKVAIDNARAQEKQVQLEKTELKMDFLRERELRETLEKQLAMEQKNRAIVQKRLKKEKKAKRKLQEALEFETKRREQAEQTLKQAASTDSLRVLNDSLTPEIEADRSGGRTDAERTIQDGRLYLKTTVMY
B1: the binding entry (with GFP-p65 [2]; in the assay with GFP-c-Jun [3]; in assay [4]; with GFP-p65 [5]; with GFP-c-Jun [6]) was “binds” in each case.

B2: endogenous DACH1 (protein, UniProt Q9UI36-2 1-706)
chain: MAVPAALIPPTQLVPPQPPISTSASSSGTTTSTSSATSSPAPSIGPPASSGPTLFRPEPIASAAAAAATVTSTGGGGGGGGSGGGGGSSGNGGGGGGGGGGSNCNPNLAAASNGSGGGGGGISAGGGVASSTPINASTGSSSSSSSSSSSSSSSSSSSSSSSSCGPLPGKPVYSTPSPVENTPQNNECKMVDLRGAKVASFTVEGCELICLPQAFDLFLKHLVGGLHTVYTKLKRLEITPVVCNVEQVRILRGLGAIQPGVNRCKLISRKDFETLYNDCTNASSRPGRPPKRTQSVTSPENSHIMPHSVPGLMSPGIIPPTGLTAAAAAAAAATNAAIAEAMKVKKIKLEAMSNYHASNNQHGADSENGDMNSSVGLELPFMMMPHPLIPVSLPPASVTMAMSQMNHLSTIANMAAAAQVQSPPSRVETSVIKERVPDSPSPAPSLEEGRRPGSHPSSHRSSSVSSSPARTESSSDRIPVHQNGLSMNQMLMGLSPNVLPGPKEGDLAGHDMGHESKRMHIEKDETPLSTPTARDSLDKLSLTGHGQPLPPGFPSPFLFPDGLSSIETLLTNIQGLLKVAIDNARAQEKQVQLEKTELKMDFLRERELRETLEKQLAMEQKNRAIVQKRLKKEKKAKRKLQEALEFETKRREQAEQTLKQAASTDSLRVLNDSLTPEIEADRSGGRTDAERTIQDGRLYLKTTVMY
With B2, the binding entry in assay [7] is given as “binds”.

(Values after article PMC8590022.)
